Consider five sequences from patent publication US6150090.

In series [1] the target is T1, IgNF-B (NF-A2), lymphoid octamer-binding protein (Homo sapiens) (UniProt P09086).
T1 sequence (looked up, limits assumed): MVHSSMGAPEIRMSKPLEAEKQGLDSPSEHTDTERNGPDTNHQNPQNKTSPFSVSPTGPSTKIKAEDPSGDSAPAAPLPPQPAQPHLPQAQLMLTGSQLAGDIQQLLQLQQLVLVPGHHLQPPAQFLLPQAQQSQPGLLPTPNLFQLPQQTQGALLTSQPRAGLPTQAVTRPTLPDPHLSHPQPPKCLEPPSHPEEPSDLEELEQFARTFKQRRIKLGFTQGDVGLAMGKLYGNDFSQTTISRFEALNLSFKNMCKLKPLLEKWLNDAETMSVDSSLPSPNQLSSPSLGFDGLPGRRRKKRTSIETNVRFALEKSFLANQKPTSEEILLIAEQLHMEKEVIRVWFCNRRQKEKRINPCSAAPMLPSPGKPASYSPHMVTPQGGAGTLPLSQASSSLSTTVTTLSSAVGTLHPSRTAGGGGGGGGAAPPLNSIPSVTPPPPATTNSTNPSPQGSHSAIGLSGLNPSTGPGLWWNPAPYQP
The series is described as follows: competition with a labelled probe. Particulars: WEHI 231 nuclear extract; partial competition; purified native protein; protein details: affinity purified from BJAB nuclear extract.

For series [2], the target named is T2, IgNF-A (NF-A1), ubiquitous octamer-binding protein (Homo sapiens) (UniProt P14859).
T2 sequence (looked up, limits assumed): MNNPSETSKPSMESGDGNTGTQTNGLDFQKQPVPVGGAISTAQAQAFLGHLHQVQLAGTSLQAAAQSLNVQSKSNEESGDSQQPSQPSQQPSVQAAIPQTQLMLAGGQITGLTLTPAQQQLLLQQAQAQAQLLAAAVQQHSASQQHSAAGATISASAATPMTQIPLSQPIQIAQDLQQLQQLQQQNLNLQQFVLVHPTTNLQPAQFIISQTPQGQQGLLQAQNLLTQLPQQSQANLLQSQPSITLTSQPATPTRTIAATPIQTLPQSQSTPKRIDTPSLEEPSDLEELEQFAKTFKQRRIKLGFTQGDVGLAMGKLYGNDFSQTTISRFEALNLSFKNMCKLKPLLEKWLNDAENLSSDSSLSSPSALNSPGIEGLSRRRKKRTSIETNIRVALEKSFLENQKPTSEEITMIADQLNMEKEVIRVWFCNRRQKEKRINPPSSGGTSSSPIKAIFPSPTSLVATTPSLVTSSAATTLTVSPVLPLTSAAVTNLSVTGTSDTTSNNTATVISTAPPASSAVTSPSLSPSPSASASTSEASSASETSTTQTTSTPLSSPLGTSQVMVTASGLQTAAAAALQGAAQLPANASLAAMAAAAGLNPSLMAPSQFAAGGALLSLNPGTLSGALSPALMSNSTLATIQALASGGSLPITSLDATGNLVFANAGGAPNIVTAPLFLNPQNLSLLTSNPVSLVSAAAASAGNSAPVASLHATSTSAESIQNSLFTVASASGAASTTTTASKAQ
As to the kind of experiment: competition with a labelled probe. The note with it: NF-A1 in WEHI 231 (mouse) nuclear extract; partial competition; protein in an extract.

Series [3] concerns Oct-2 phage 3 beta-galactosidase fusion (Homo sapiens). As to the kind of experiment: competition with a labelled probe. The note with it: slight competition; protein in a lysate after overexpression; protein details: beta-galactosidase fusion, lambda gt11 lysogen.
The test system of series [4] is Oct-2 truncated at StuI (cDNA 655-1443) (Homo sapiens). As to the kind of experiment: EMSA. The note with it: protein translated in vitro. A general note: A gel shift assay detects complexes by their altered migration in electrophoresis.
In series [5] the test system is Oct-2 (pass-3 / 3-1 cDNA) (Homo sapiens). The series is described as follows: EMSA. Particulars: KpnI-terminated and 3-1/pass-3 polypeptides; protein translated in vitro.
In series [6] the target is T3, Oct-2 truncated at EagI (cDNA 655-945, helix-turn-helix deleted) (Homo sapiens) (UniProt P09086).
T3 sequence (looked up): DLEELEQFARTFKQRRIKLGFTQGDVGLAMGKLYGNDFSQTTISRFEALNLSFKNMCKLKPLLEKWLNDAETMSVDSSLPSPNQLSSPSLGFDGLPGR
As to the kind of experiment: EMSA. The note with it: helix-turn-helix deleted; protein translated in vitro.

The test system of series [7] is lambda h3 MHC-element binding protein (PRDII-BF1) (Homo sapiens). As to the kind of experiment: binding assay. Particulars: protein in a lysate after overexpression, protein details: beta-galactosidase fusion, lambda gt11 lysogen.
For series [8] the test system is unchanged. The series is described as follows: EMSA. Particulars: affinity higher than for kappa enhancer site; methylation interference at central Gs; protein in a lysate after overexpression; protein details: beta-galactosidase fusion, lambda gt11 lysogen.

For part of these data: Weaker means in comparison with the reference protein, sequence or condition of that experiment. For part of these data: Where a protein sequence is shown, tags need not be part of it. For part of these data: Results from cells or extracts need not show a direct contact. For part of these data: The exact form of at least one protein or probe is not confirmed. For part of these data: No signal at the amounts used counts as a negative.

On to “TCATTTCCAT (double strand) [octamer mutant TCATTTCCAT]”, for which the binding result in series [1], in series [2] and in series [3] was “binds more weakly” each time.
As to ATGCAAAT (double strand) [OCTA probe], the binding result was “binds” in series [4], “binds” in series [5], “no binding” in series [6] and “no binding” in series [7] (plaque filter / renatured blot).
With “ATATTGCAT (double strand) [octamer mutant ATATTGCAT]”, the binding result in series [1], in series [2] and in series [3] was “binds more weakly” throughout.
In the case of “GATCCGGCTGGGGATTCCCCATCT (double strand) [MHC element]”, in series [8], the binding result was “binds”.
On to “AAATCCCCTAAAACGAGGGATAAA (double strand) [lambda ori probe]”, for which the binding result in series [7] (plaque filter) was “no binding”.
